The source of these data is patent US20170291905A1, “ARGININE METHYLTRANSFERASE INHIBITORS AND USES THEREOF” (Epizyme, Inc., priority 2014, published 2017).

By UniProt entry, the sequences of proteins in these tests, tags left out. Chains listed by the source or under a name are the forms on record and can include a tag or linker. Residues count along the entry.
UniProt Q96LA8, 2-375 with tags or gaps: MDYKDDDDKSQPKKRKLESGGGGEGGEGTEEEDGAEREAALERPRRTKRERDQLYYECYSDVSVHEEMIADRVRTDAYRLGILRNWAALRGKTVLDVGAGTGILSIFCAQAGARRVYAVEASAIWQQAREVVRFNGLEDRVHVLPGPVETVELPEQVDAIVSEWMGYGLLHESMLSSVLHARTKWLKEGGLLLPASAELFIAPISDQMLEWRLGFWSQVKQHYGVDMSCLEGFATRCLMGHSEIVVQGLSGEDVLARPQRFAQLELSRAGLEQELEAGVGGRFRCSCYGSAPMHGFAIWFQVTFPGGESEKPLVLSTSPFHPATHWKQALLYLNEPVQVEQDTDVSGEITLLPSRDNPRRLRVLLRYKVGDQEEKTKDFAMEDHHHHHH

For this experiment, the target named is full-length human PRMT6 (Flag- and His-tagged) (Homo sapiens, UniProt Q96LA8). Put plainly: PRMT6 biochemical assay (3H-SAM Flashplate, histone H4 36-50 K44me1 peptide). Conditions: read-out: PRMT6 IC50; 1 nM PRMT6, 30 min preincubation, 75 nM peptide. From the text: S-adenosylmethionine (SAM), S-adenosylhomocysteine (SAH), bicine, Tween20, dimethylsulfoxide (DMSO), bovine skin gelatin (BSG), sodium butyrate and Tris(2-carboxyethyl)phosphine hydrochloride solution (TCEP) were purchased from Sigma-Aldrich at the highest level of purity possible. ^3H-SAM was purchase from American Radiolabeled Chemicals with a specific activity of 80 Ci/mmol. 384-well streptavidin Flashplates were purchased from PerkinElmer.
Peptide representative of human histone H4 residues 36-50 was synthesized with an N-terminal linker-affinity tag motif and a C-terminal amide cap by 21st Century Biochemicals. The peptide was purified by high-performance liquid chromatography (HPLC) to greater than 95% purity and confirmed by liquid chromatography mass spectrometry (LC-MS). The sequence was Biot-Ahx-RLARRGGVKRISGLI-amide and contained a monomethylated lysine at position 44 (SEQ ID NO.:5).
Full-length human PRMT6 (NM_018137.2) transcript clone was amplified from an HEK 293 cDNA library, incorporating a flanking 5′ sequence encoding a FLAG tag (MDYKDDDDK) (SEQ ID NO.:6) fused directly to Ser 2 of PRMT6 and a 3′ sequence encoding a hexa His sequence (HHHHHH) (SEQ ID NO.: 17) fused directly to Asp 375. The amplified gene was subcloned into pFastBacMam (Viva Biotech).
Recombinant baculovirus were generated according to Bac-to-Bac kit instructions (Life Technologies). […]

The match of structure and compound is tentative.

The IC50 is the point on the concentration scale where inhibition reaches its midpoint. As to `CNCCN(C)Cc1ncsc1[C@H]1CC[C@@]2(CC1)CC(C)(C)CO2` [compound 83], the IC50 was 0.0284 µM.
